PubChem BioAssay AID256 (DTP/NCI, 2004)
The list does not hold the whole screen: its compounds were picked by chemical class. Other doses and runs of a compound may be missing. T/C gives the treated animals as a percentage of the vehicle group. For survival time, the PubChem record calls one and a half times the control and up active, and a quarter to a half above the control has no call in these data; cut-offs in other NCI protocols can differ. Schedule codes are those of the source, read here as Q, the interval in days (D) or hours (H), X, the number of doses. Some T/C values are marked as having no survivor count here; that says nothing about deaths at the dose. Counts like (3×) give the number of equal values in this list. Some doses were run more than once; their values stand side by side, smallest first.

Tested on: CD2F1 mice, L1210 leukemia ip, survival T/C
Experiment: NCI In Vivo Anticancer Drug Screen. Data for tumor model L1210 Leukemia (intraperitoneal) in CD2F1 (CDF1) mice
Conditions: higher T/C = longer survival
Experimental: The antitumor activity of compounds was measured in mice bearing transplantable tumors. Survival or tumor size were measured and the results are expressed as the measurement made in the treated group (T) divided by the measurement made in the vehicle treated control group (C). The tumor model used in this assay is L1210 Leukemia (intraperitoneal) in CD2F1 (CDF1) mice

CN(CCCl)CCCl
T/C (T/C endpoint: mean survival time, dose: 3.0 mg/kg/injection, schedule: Q04DX003 (ip), vehicle: saline): 94 % of control [survivor count not shown] | T/C (T/C endpoint: mean survival time, dose: 3.2 mg/kg/injection, schedule: Q01DX001 (ip), vehicle: none): 86 % of control [survivor count not shown] | T/C (T/C endpoint: mean survival time, dose: 3.2 mg/kg/injection, schedule: Q01DX001 (ip), vehicle: saline): 86 % of control [survivor count not shown] | T/C (T/C endpoint: mean survival time, dose: 3.4 mg/kg/injection, schedule: Q01DX001 (ip), vehicle: saline): 136 [survivor count not shown] and 185 % of control [survivor count not shown] | T/C (T/C endpoint: mean survival time, dose: 4.0 mg/kg/injection, schedule: Q01DX001 (ip), vehicle: saline): 122 % of control [survivor count not shown] (2×) | T/C (T/C endpoint: mean survival time, dose: 4.0 mg/kg/injection, schedule: Q01DX001 (ip), vehicle: water): 115 % of control [survivor count not shown] | T/C (T/C endpoint: mean survival time, dose: 4.0 mg/kg/injection, schedule: Q01DX001 (iv), vehicle: water): 119 % of control [survivor count not shown] | T/C (T/C endpoint: mean survival time, dose: 4.0 mg/kg/injection, schedule: Q01DX009 (oral), vehicle: water): 122 % of control [survivor count not shown] | T/C (T/C endpoint: mean survival time, dose: 4.0 mg/kg/injection, schedule: Q08DX002 (ip), vehicle: water): 121 % of control [survivor count not shown] | T/C (T/C endpoint: mean survival time, dose: 6.0 mg/kg/injection, schedule: Q01DX001 (ip), vehicle: DMSO): 167 % of control [survivor count not shown] | T/C (T/C endpoint: mean survival time, dose: 6.0 mg/kg/injection, schedule: Q01DX001 (ip), vehicle: saline): 98 [survivor count not shown] and 117 % of control [survivor count not shown] | T/C (T/C endpoint: mean survival time, dose: 8.0 mg/kg/injection, schedule: Q01DX001 (ip), vehicle: saline): 118 % of control [survivor count not shown] (2×) | T/C (T/C endpoint: mean survival time, dose: 8.0 mg/kg/injection, schedule: Q01DX001 (oral), vehicle: water): 108 % of control [survivor count not shown] | T/C (T/C endpoint: mean survival time, dose: 8.0 mg/kg/injection, schedule: Q01DX009 (oral), vehicle: water): 96 % of control [survivor count not shown] | T/C (T/C endpoint: mean survival time, dose: 16.0 mg/kg/injection, schedule: Q01DX001 (oral), vehicle: water): 116 % of control [survivor count not shown] | T/C (T/C endpoint: median survival time, dose: 0.06 mg/kg/injection, schedule: Q01DX009 (ip), vehicle: saline): 114 % of control | T/C (T/C endpoint: median survival time, dose: 0.12 mg/kg/injection, schedule: Q01DX005 (ip), vehicle: saline): 140 % of control | T/C (T/C endpoint: median survival time, dose: 0.12 mg/kg/injection, schedule: Q01DX009 (ip), vehicle: saline): 133 % of control | T/C (T/C endpoint: median survival time, dose: 0.13 mg/kg/injection, schedule: Q01DX009 (ip), vehicle: saline): 127 [survivor count not shown] and 142 % of control [survivor count not shown] | T/C (T/C endpoint: median survival time, dose: 0.25 mg/kg/injection, schedule: Q01DX005 (ip), vehicle: saline): 144 % of control | T/C (T/C endpoint: median survival time, dose: 0.25 mg/kg/injection, schedule: Q01DX009 (ip), vehicle: saline, evaluated on day 30): 246 % of control | T/C (T/C endpoint: median survival time, dose: 0.25 mg/kg/injection, schedule: Q01DX009 (ip), vehicle: saline, evaluation day not shown): 127 [survivor count not shown] and 142 % of control [survivor count not shown] | T/C (T/C endpoint: median survival time, dose: 0.5 mg/kg/injection, schedule: Q01DX005 (ip), vehicle: saline): 156 % of control | T/C (T/C endpoint: median survival time, dose: 0.5 mg/kg/injection, schedule: Q01DX009 (ip), vehicle: saline, evaluated on day 30): 246 % of control | T/C (T/C endpoint: median survival time, dose: 0.5 mg/kg/injection, schedule: Q01DX009 (ip), vehicle: saline, evaluation day not shown): 127 [survivor count not shown] and 157 % of control [survivor count not shown] | T/C (T/C endpoint: median survival time, dose: 0.7 mg/kg/injection, schedule: Q04DX002 (ip), vehicle: saline): 107 % of control [survivor count not shown] | T/C (T/C endpoint: median survival time, dose: 0.76 mg/kg/injection, schedule: Q01DX001 (ip), vehicle: saline): 106 [survivor count not shown], 109 [survivor count not shown], 145 % of control [survivor count not shown] | T/C (T/C endpoint: median survival time, dose: 1.0 mg/kg/injection, schedule: Q01DX005 (ip), vehicle: saline): 188 % of control | T/C (T/C endpoint: median survival time, dose: 1.0 mg/kg/injection, schedule: Q01DX009 (ip), vehicle: saline, evaluated on day 30): 246 % of control | T/C (T/C endpoint: median survival time, dose: 1.0 mg/kg/injection, schedule: Q01DX009 (ip), vehicle: saline, evaluation day not shown): 100 [survivor count not shown] and 114 % of control [survivor count not shown] | T/C (T/C endpoint: median survival time, dose: 1.2 mg/kg/injection, schedule: Q04DX002 (ip), vehicle: saline): 109 % of control [survivor count not shown] | T/C (T/C endpoint: median survival time, dose: 1.3 mg/kg/injection, schedule: Q01DX001 (ip), vehicle: saline): 96 [survivor count not shown], 100 [survivor count not shown], 105 % of control [survivor count not shown] | T/C (T/C endpoint: median survival time, dose: 2.0 mg/kg/injection, schedule: Q01DX005 (ip), vehicle: saline): 109 % of control | T/C (T/C endpoint: median survival time, dose: 2.0 mg/kg/injection, schedule: Q04DX002 (ip), vehicle: saline): 113 % of control [survivor count not shown] | T/C (T/C endpoint: median survival time, dose: 2.1 mg/kg/injection, schedule: Q01DX001 (ip), vehicle: saline): 104 [survivor count not shown], 108 [survivor count not shown], 147 % of control [survivor count not shown] | T/C (T/C endpoint: median survival time, dose: 3.3 mg/kg/injection, schedule: Q04DX002 (ip), vehicle: saline): 116 % of control [survivor count not shown] | T/C (T/C endpoint: median survival time, dose: 3.5 mg/kg/injection, schedule: Q01DX001 (ip), vehicle: saline): 109 [survivor count not shown], 113 [survivor count not shown], 149 % of control [survivor count not shown]
